No constants are given. Whether binding was seen depends on the method and setting. In cells and extracts the contact can be indirect. Here binding means that the protein was enriched with, or labelled near, the bait; the list need not be complete.
Target: SET-24::3xFLAG (C. elegans)
Assay: affinity purification with mass spectrometry; anti-FLAG antibody (F1804) and Dynabeads Protein G on 2 mg extract of young adult SET-24::3xFLAG worms, wild-type N2 as control; wash buffer 25 mM Tris/HCl pH 7.5, 300 mM NaCl, 1.5 mM MgCl2, 1 mM DTT; 4 °C; quadruplicates

B1: Host Cell Factor 1 (HCF-1) (protein, UniProt G5EC23 1-782)
chain: MDEDVGLEATNYSRGDESRSEEQEKNVVRWRIVQQSTGPNPKPRHGHRAVVLKELIVIFGGGNEGMIDELHAYNTQKREWTAPQCCGDVPTPAAAFGAISLGNKIYRFGGMTEYGKYTNDLYELQSTRWEWRRLNPRVHSNGHLPCPRIGHSFVVSQKSQKAYVFGGLSNDLNDPKRNVPHYLDDLYVINLSGPQHLIWEKLNATGPGPISRESHTAVIYEKDSISRMVVYGGMNGVRLGDLWYLNLNTLHWTEIKFDDPRTGIPPMPRSLHSSVLIGDKMFVYGGWVPLLEHASTEQQTEKEWKCTSSLGCWNITEDRWVPLHLYCSDEDTIPRGRAGHCAAAVGDRMYIWSGRDGYRKAWSNQVCCRDMWLLDTILPEQPGKVQLGRAGFNSLEISWPIVQGASGYFLQIGFGDAKEQSVSPIKRATTSPRKQPSIVPPSQKETEQSPKKPQGTAPSIISTQGTTYTAPADPKPATDEGGLPQDLFEDTEKNETASPKRSNDAQSADSSTCEQKKTDESGLEEDSEKDQKPSDAGETDEMKEENGDDDLPWFDVGIIDKATINVTHYFNDRQQSLEKQLNDLIDHNAFKCVNDSVFTTEDKIPLINGQSYRFRVSAINGLGKGAWSETASCKTCVPGYPSAPSSIRITKSHEGAQLTWEPPSNTNISGKIIEYSVYLAVKNQSANSADSQLAFMRVYCGPQADCQVLQSNLGTAFVDQTNKPAIIFRIAARNEKGYGPATQVRWLQDQQKIPVRTNYPNNSGFIYQQHGGQQKRARFDHQ
binding: binds
